These are yes or no findings as the source states them, for the method shown. For some assays here: Binding seen in cells or lysates may run through a third protein. Some binding calls cover weakened binding; strength is not graded here. For some assays here: Where a sequence is shown, tags or fusion partners need not be part of it.

We go through 4 molecules from PMC6355022.

Experiment [1] deals with T1, LBD30 fused to the Gal4 DNA-binding domain (Arabidopsis thaliana) (UniProt O81323).
T1 sequence: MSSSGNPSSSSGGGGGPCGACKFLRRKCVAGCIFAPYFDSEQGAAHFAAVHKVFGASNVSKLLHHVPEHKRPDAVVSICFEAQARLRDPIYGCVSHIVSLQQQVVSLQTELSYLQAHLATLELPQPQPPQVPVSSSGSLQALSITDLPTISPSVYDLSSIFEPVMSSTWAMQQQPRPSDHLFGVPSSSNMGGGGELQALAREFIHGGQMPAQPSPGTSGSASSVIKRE
Description: two-hybrid; directed test: AtSIZ1 in pGADT7 (Gal4 AD) and LBD30 or its derivates in pGBKT7 (Gal4 BD), AH109 yeast cells.

Experiment [2] addresses T2, LBD30-C (amino acids 121-228) fused to the Gal4 DNA-binding domain (Arabidopsis thaliana) (UniProt O81323).
T2 sequence: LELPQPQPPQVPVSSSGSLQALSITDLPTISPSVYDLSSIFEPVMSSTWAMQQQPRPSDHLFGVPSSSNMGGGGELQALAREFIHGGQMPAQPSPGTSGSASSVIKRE
Described as above.

The target in experiment [3] is T3, GST-AtSIZ1 fusion protein (Arabidopsis thaliana) (UniProt Q680Q4).
T3 sequence: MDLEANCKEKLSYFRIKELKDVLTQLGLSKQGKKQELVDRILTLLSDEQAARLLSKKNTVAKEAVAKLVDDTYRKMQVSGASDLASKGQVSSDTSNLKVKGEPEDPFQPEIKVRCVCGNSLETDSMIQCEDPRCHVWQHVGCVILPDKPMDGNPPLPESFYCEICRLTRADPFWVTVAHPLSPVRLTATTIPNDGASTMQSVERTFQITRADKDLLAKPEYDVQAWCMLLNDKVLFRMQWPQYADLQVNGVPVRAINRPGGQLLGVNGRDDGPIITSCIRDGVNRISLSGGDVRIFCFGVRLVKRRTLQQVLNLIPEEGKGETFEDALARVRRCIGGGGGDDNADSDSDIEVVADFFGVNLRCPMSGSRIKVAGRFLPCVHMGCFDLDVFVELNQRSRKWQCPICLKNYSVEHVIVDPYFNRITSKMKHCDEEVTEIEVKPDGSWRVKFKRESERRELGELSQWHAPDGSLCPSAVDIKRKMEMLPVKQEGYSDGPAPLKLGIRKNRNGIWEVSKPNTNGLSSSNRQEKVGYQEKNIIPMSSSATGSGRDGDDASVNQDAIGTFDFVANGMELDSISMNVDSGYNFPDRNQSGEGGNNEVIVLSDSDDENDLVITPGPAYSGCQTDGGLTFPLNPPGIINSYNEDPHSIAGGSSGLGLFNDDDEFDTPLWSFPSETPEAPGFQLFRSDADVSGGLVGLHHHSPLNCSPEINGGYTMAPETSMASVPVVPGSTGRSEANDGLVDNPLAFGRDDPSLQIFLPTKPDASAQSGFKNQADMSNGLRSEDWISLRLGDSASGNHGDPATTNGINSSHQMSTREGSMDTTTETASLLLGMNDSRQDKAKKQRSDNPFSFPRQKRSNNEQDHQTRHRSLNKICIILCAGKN
In words: pull-down; GST or GST-AtSIZ1 from cell lysates immobilised on GST Agarose, washed with 1xPBS, incubated with lysate of E. coli expressing His6-LBD30; immunoblot with anti-His; only the target purified.

The target in experiment [4] is T4, YN-AtSIZ1 (Arabidopsis thaliana) (UniProt Q680Q4).
T4 sequence: T3 sequence
In words: split reporter; BiFC with split YFP in N. benthamiana leaf cells, examined 48 h after infiltration; confocal microscopy, DAPI for nuclei.

Experiment [5] addresses T5, MYC-AtSIZ1 (Arabidopsis thaliana) (UniProt Q680Q4).
T5 sequence: T3 sequence
In words: co-IP; Myc-AtSIZ1 and LBD30-HA co-expressed in tobacco leaves; extract in 50 mM Tris-HCl pH 7.5, 150 mM NaCl, 1 mM EDTA, 0.2% Triton X-100; IP with anti-Myc agarose or anti-HA matrix, 3 h at 4°C; immunoblot with anti-HA or anti-Myc. For orientation: In western blotting, separated proteins are transferred to a membrane and probed.

B1: AtSIZ1 fused to the Gal4 activation domain (enzyme, UniProt Q680Q4 1-884)
chain: T3 sequence
As to B1, the binding result in experiment [1] and in experiment [2] was “binds” throughout.

B2: His6-LBD30 fusion protein (protein, UniProt O81323 1-228)
chain: T1 sequence
B2: the binding entry in experiment [3] is given as “binds”.

B3: LBD30-YC (protein, UniProt O81323 1-228)
chain: T1 sequence
Regarding B3, the binding entry in experiment [4] is given as “binds”.

B4: LBD30-HA (protein, UniProt O81323 1-228)
chain: T1 sequence
With B4, the binding entry in experiment [5] is reported as “binds”.
